# The other results are listed elsewhere or left out. Shown are side measurements of this screen, not its main read-out; they come without a call. The list favours compounds with an active or inconclusive main result. Words in brackets tell the shape of the fitted curve; partial curves, single points and poor fits give uncertain potencies.
# Assay: qHTS Assay for Lipid Storage Modulators in Drosophila S3 Cells;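 on cell number change: cells counted by Cell Tracker Red CMTPX staining in the red channel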
# Settings: BODIPY lipid droplet fluorescence, 18-24 h; for cell number change: measured here: cell count max response, cells fed with added oleic acid
# Procedure, shortened: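 Laser-scanning cytometry quantifies lipid droplet accumulation (500–530 nm total intensity; droplet/cell object ratio) in oleic acid-fed (400 uM added) Drosophila S3 cells treated with a concentration series. 20 uM Triacsin C defined 100% inhibition.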
# [1] = measured here: cell number channel AC50, cells fed with added oleic acid
# [2] = measured here: lipid fluorescence (Fed channel) AC50, cells fed with added oleic acid
Structure (SMILES),AC50 [1],cell number change,AC50 [2]
O/N=C/c1ccc(OCc2ccccc2F)c(Cl)c1,"3.66 µM [rising, single point]",–,–
COc1ccc(N2CCN(S(=O)(=O)CCNC(=O)c3cccs3)CC2)cc1,–,10%,"0.58 µM [rising, full curve, poor fit]"
CCc1ccc(/C=C2\Oc3ccc(C(=O)OC)cc3C2=O)cc1,–,8.48%,"0.461 µM [rising, single point]"
O=C(O)c1ccc(S(=O)(=O)N(Cc2ccccc2)Cc2ccccc2)cc1,"0.82 µM [rising, full curve, poor fit]",–,"0.731 µM [rising, full curve]"
CCN1CCN(c2ccc(S(=O)(=O)N3CCOCC3)cc2NC(=O)/C=C/c2ccc(OC)cc2OC)CC1,"2.59 µM [rising, full curve, poor fit]",43.8%,–
O=C(O)C1CSC(c2ccco2)N1 (stereo not given),–,–,"2.91 µM [rising, full curve, poor fit]"
O=C(/C=C/c1c(Cl)cccc1Cl)n1cccn1,"20.6 µM [falling, partial curve]",-42%,"16.4 µM [falling, partial curve]"
CCOC(=O)Cc1csc(NC(=O)c2ccc(S(=O)(=O)N3CCOCC3)cc2)n1,–,7.92%,"0.731 µM [falling, partial curve, poor fit]"
Cc1[nH]nc2c1C(C1CC=CCC1)C(C#N)=C(N)O2 (stereo not given),–,-4.45%,–
CCN(c1cccc(C)c1)S(=O)(=O)c1cc(CN2C(=O)c3cccnc3C2=O)ccc1OC,–,–,"4.11 µM [falling, full curve]"
O=C(CCC1CCN(Cc2ccccc2O)CC1)NC1CC1,–,16.1%,"0.517 µM [falling, full curve, poor fit]"
Cc1ccc2[nH]c(=O)c(CN(Cc3ccc4c(c3)OCO4)Cc3nnnn3C3CCCC3)cc2c1,"29.1 µM [falling, single point]",-76.3%,"0.326 µM [rising, full curve, poor fit]"
CCC(=O)Oc1ccc(NC(=O)c2ccco2)cc1,"0.0146 µM [rising, single point]",81.2%,–
CCOc1ccc(NC(=O)C2CCN(S(=O)(=O)c3cccs3)CC2)cc1,–,-0.901%,–
O=C(NC(=S)NC(c1ccccc1)c1ccncc1)c1ccccc1 (stereo not given),–,2.12%,"0.00461 µM [rising, full curve, poor fit]"
CCOc1c(Br)cc(C(N)=O)cc1OC,"3.26 µM [falling, partial curve, poor fit]",-31.4%,"29.1 µM [rising, single point]"
COc1ccc(N2CCN(C(=O)C(=O)c3c[nH]c4ccccc34)CC2)cc1,–,-16.7%,"11.6 µM [rising, partial curve, poor fit]"
Cn1c(COc2ccccc2)nnc1SCCSc1nnc(COc2ccccc2)n1C,"0.651 µM [falling, full curve, poor fit]",-17.7%,"6.51 µM [falling, single point]"
CN1C(=O)C(C)(C)c2cc(S(=O)(=O)N3CCCC3C(=O)NCc3ccccc3Cl)ccc21 (stereo not given),–,-16.7%,"0.00517 µM [falling, full curve, poor fit]"
Cc1ccc(C(=O)CSc2nnc(C3CC3)n2C2CC2)s1,–,-4.52%,"3.66 µM [falling, single point]"

Structure (SMILES),AC50 [1],cell number change,AC50 [2]
CCOc1ccc(C(C)=O)cc1CSc1nc2nc(C)cc(C)n2n1,–,–,"0.461 µM [falling, single point]"
COc1ccc(CC(=O)NCc2nnc(SCC(=O)Nc3ncc(C)s3)n2C)cc1,–,12.9%,–
Cc1ccccc1NC(=O)CSc1nc2ccccc2c2nc(CCn3cncc3C)nn12,–,-1.59%,"0.92 µM [rising, partial curve]"
CS(=O)(=O)N1CCc2cc(C(=O)Nc3cccc([N+](=O)[O-])c3)ccc21,–,2.05%,"29.1 µM [rising, single point]"
Cn1c2ccccc2c2nn(-c3ccccc3)c(=O)cc21,–,-16%,–
Cc1nc(C)c(C(=O)OCC(=O)NCc2ccccc2)s1,–,–,"0.82 µM [falling, full curve]"
Cc1ccc(-c2noc(-c3ccccc3C(=O)NCc3ccco3)n2)cc1,"0.00411 µM [rising, full curve, poor fit]",9.55%,"0.00517 µM [rising, full curve, poor fit]"
CCc1nnc(NC(=O)C2c3ccccc3Oc3ccccc32)s1,–,-22.7%,"5.8 µM [falling, single point]"
O=C(OC(C(=O)NCc1cccs1)c1ccc(F)cc1)c1ccco1 (stereo not given),–,3.17%,"2.59 µM [rising, partial curve, poor fit]"
Clc1cccc2sc(N3CCCCC3)nc12,"1.16 µM [falling, full curve, poor fit]",6.8%,"0.731 µM [falling, full curve]"
COc1ccc(NC(=O)Cc2cccc(F)c2)cc1S(=O)(=O)Nc1ccccc1Cl,–,6.28%,"5.8 µM [rising, single point]"
COc1ccc(CN2C(=O)CN(C3CCCCCC3)C(=O)C2c2ccc(F)cc2)cc1 (stereo not given),–,18.5%,"7.31 µM [rising, partial curve]"
CCCn1nnc(NC(=S)NC(=O)/C=C/c2ccco2)n1,"25.9 µM [rising, partial curve]",30.6%,–
c1csc(-c2cc(N3CCCCC3)c3ccccc3n2)c1,"9.2 µM [rising, partial curve]",92.2%,"8.2 µM [rising, partial curve]"
COc1ccc(CC(=O)Nc2c(C(N)=O)oc3ccccc23)cc1OC,"4.61 µM [rising, partial curve]",20.7%,–
CCOC(=O)c1ccc(NC(=O)c2nc(SC)ncc2Cl)cc1,–,15.6%,"2.91 µM [falling, single point]"
COc1ccc(-c2csc(NC(=O)C3=COCCO3)n2)c(OC)c1,–,-16.6%,"29.1 µM [falling, single point]"
COC(=O)[C@@H]1CC[C@H](C)[C@@H](c2ccc(C)cc2)N1C(=O)c1ccc(/C=N/O[C@H](C)c2cn([C@@H]3COC[C@H]3O)nn2)cc1,–,-1.34%,"32.6 µM [rising, single point]"
O=C(CCCN1C(=O)c2cccc3cccc(c23)C1=O)N1CCc2ccccc2C1,"11.6 µM [falling, partial curve]",-40.8%,"13 µM [falling, partial curve, poor fit]"
CC1CCN(C(=O)CN2C(=O)NC3(CCCc4ccccc43)C2=O)CC1 (stereo not given),"29.1 µM [rising, single point]",162%,"0.731 µM [rising, single point]"

Structure (SMILES),AC50 [1],cell number change,AC50 [2]
Cc1nc2nc(-c3ccc(Cl)cc3)[nH]n2c(=O)c1Cc1ccccc1,–,–,"0.517 µM [rising, single point]"
COc1ccc(C(=O)COC(=O)COc2ccc(C)c(C)c2)cc1,–,-1.64%,"18.4 µM [rising, single point]"
OC(COCc1cccs1)CN1CCN(c2cccc(C(F)(F)F)c2)CC1 (stereo not given),–,-29.6%,–
CCOC(=O)C(NC(C)=O)(N1CCOCC1)C(F)(F)F (stereo not given),–,-15%,"2.59 µM [falling, partial curve]"
COc1ccc(C(=O)NC2CCSc3ccccc32)cc1 (stereo not given),"3.26 µM [rising, full curve, poor fit]",30.4%,"0.461 µM [rising, full curve, poor fit]"
Cc1ccc(-c2ccccc2)n1-c1ccc(C(=O)O)cc1,"25.9 µM [rising, single point]",59.1%,"4.61 µM [rising, full curve]"
Cc1cc(C)cc(NC(=O)CC23CC4CC(C2)CC(n2nnc(C)n2)(C4)C3)c1,–,2.2%,"0.517 µM [falling, single point]"
O=C(Cn1ccc([N+](=O)[O-])n1)Nc1nccs1,–,-4.23%,–
COC(=O)c1ccc(NC(=O)c2ccc(F)cc2)o1,–,14.6%,–
CN(CC(=O)NCc1ccccn1)S(=O)(=O)c1ccc(F)cc1,–,0.164%,"0.291 µM [rising, full curve, poor fit]"
CCCCn1c(N)c(N(CC(C)C)C(=O)C2CSC3(C)CCC(=O)N23)c(=O)[nH]c1=O (stereo not given),–,28%,–
O=c1c2cc(Cl)ccc2[nH]c(=S)n1Cc1cccs1,–,6.25%,"4.61 µM [rising, partial curve, poor fit]"
O=C(CSc1nnc(NC(=O)c2cccc(F)c2)s1)NC1CC1,–,17.5%,"29.1 µM [rising, single point]"
COCCCNC(=O)c1sc2ncnc(N3CCc4ccccc4C3)c2c1C,"13 µM [falling, partial curve, poor fit]",-39.9%,"13 µM [falling, partial curve, poor fit]"
COc1ccc(CC(C)N2CCN(c3ccccc3)CC2)cc1OC (stereo not given),"0.651 µM [falling, full curve]",4.9%,"0.651 µM [falling, full curve]"
O=C(Cc1ccc(Cl)cc1)Nc1cccc(S(=O)(=O)N2CCCCC2)c1,–,-17.5%,–
Cc1ccc(C(=O)N2C(=S)C(c3ccc(F)cc3)=NC23CCN(C)CC3)cc1,"29.1 µM [falling, single point]",-59.3%,"29.1 µM [falling, single point]"
O=C(NCC1CCCO1)c1nnc(Cc2ccc(F)cc2)o1 (stereo not given),–,-26.1%,"0.731 µM [falling, full curve, poor fit]"

# Complete entries from above.
# `Cc1ccc(C(=O)N2C(=S)C(c3ccc(F)cc3)=NC23CCN(C)CC3)cc1` as listed: AC50 [1]: 29.1 µM [falling, single point]; cell number change: -59.3%; AC50 [2]: 29.1 µM [falling, single point]
# `O=c1c2cc(Cl)ccc2[nH]c(=S)n1Cc1cccs1` as listed: cell number change: 6.25%; AC50 [2]: 4.61 µM [rising, partial curve, poor fit]

# Source: PubChem BioAssay AID2685 (National Center for Advancing Translational Sciences (NCATS), 2010)
